Source: article PMC4694975
Results are given in words; binding and its absence hold for the method and conditions named. Binding seen in cells or lysates may run through a third protein. Some entries that bind do so weakly or less than the wild type.

Chains of the proteins cited; added tags and fusions are not shown.
UniProt Q14247: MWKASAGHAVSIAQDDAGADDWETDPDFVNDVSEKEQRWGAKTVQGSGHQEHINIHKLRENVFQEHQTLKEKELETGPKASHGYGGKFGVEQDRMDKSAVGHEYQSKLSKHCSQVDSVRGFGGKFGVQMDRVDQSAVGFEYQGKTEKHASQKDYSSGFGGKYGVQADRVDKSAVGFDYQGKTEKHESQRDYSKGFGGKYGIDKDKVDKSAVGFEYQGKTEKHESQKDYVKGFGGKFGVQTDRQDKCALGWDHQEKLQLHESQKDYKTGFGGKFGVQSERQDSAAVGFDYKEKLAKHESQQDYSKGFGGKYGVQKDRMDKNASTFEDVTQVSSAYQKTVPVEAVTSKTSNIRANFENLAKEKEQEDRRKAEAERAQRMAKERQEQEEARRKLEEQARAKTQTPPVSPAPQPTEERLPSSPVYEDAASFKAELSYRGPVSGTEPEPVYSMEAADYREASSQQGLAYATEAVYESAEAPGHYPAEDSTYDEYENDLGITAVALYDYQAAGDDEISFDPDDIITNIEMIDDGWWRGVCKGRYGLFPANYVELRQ
UniProt Q15746: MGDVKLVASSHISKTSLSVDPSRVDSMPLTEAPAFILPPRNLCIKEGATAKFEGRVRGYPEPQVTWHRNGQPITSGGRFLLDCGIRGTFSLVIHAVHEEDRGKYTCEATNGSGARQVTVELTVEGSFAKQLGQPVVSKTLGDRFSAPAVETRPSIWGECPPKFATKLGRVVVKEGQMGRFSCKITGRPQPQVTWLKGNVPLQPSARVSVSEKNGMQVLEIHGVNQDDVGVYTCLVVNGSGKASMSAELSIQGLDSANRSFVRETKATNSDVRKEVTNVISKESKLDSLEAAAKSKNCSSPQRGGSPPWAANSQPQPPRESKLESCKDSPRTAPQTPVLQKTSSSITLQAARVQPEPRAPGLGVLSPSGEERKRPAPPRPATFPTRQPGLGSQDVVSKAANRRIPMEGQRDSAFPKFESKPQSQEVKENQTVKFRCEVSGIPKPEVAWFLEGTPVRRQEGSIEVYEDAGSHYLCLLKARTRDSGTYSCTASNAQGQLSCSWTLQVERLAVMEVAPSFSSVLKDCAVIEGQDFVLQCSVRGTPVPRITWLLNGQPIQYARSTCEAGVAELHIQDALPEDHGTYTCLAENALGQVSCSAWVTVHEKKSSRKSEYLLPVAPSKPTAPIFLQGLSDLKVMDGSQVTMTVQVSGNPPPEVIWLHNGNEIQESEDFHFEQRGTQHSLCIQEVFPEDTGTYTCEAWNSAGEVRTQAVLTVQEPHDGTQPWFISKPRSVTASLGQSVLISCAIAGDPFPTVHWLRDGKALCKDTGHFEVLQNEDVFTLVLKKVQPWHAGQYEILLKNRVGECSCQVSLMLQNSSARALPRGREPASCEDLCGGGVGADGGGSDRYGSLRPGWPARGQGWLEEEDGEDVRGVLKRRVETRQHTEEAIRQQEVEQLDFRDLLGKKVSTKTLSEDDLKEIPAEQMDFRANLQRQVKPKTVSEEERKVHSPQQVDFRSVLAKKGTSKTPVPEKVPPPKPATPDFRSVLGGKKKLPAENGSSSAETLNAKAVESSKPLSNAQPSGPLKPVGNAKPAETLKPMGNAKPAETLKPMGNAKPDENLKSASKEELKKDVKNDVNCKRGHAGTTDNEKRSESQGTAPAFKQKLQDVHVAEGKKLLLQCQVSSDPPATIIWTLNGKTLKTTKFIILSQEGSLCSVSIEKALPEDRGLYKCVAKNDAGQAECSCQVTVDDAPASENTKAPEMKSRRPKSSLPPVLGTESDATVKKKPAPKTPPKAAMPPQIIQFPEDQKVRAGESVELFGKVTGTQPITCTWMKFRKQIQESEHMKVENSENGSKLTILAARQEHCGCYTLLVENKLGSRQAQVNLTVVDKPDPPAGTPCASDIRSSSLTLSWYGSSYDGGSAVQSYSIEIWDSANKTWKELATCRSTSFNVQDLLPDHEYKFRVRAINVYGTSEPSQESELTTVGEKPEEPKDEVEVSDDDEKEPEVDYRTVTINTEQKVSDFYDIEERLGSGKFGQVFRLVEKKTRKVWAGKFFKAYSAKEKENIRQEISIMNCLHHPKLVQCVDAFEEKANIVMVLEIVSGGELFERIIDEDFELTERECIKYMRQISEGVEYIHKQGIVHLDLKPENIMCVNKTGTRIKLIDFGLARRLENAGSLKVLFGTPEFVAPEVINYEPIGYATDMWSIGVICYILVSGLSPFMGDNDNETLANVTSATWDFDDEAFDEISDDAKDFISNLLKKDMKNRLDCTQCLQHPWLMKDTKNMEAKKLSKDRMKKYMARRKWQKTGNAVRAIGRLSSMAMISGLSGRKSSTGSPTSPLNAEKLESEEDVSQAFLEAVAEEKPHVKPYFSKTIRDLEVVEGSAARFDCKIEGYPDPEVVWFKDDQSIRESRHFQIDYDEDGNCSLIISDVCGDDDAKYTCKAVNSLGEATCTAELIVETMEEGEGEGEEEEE

Biological target: Cortactin (human (endogenous in MDA-MB-231)) (UniProt Q14247)
Test: proximity ligation; in situ PLA (Duolink) in MDA-MB-231 cells transfected with MYLK-HA, seeded on gelatin coated coverslips, fixed; primary antibodies as for immunofluorescence, anti-rabbit plus and anti-mouse minus PLA probes

- binding: binds
Substance: HA-tagged MYLK (myosin light chain kinase) (from UniProt Q15746 1-1914) (enzyme)
